Experimental data reported in PMC12297659, “In situ structure of the mouse sperm central apparatus reveals mechanistic insights into asthenozoospermia” (Cell Research, 2025).
Read-outs that look alike come from different tables or passages of the source. These are yes or no findings as the source states them, for the method shown. Some entries that bind do so weakly or less than the wild type. Each block holds one molecule with its values, some of them ahead of it.

The chains behind the UniProt entries cited, without tags or fusion partners.
UniProt Q80W93: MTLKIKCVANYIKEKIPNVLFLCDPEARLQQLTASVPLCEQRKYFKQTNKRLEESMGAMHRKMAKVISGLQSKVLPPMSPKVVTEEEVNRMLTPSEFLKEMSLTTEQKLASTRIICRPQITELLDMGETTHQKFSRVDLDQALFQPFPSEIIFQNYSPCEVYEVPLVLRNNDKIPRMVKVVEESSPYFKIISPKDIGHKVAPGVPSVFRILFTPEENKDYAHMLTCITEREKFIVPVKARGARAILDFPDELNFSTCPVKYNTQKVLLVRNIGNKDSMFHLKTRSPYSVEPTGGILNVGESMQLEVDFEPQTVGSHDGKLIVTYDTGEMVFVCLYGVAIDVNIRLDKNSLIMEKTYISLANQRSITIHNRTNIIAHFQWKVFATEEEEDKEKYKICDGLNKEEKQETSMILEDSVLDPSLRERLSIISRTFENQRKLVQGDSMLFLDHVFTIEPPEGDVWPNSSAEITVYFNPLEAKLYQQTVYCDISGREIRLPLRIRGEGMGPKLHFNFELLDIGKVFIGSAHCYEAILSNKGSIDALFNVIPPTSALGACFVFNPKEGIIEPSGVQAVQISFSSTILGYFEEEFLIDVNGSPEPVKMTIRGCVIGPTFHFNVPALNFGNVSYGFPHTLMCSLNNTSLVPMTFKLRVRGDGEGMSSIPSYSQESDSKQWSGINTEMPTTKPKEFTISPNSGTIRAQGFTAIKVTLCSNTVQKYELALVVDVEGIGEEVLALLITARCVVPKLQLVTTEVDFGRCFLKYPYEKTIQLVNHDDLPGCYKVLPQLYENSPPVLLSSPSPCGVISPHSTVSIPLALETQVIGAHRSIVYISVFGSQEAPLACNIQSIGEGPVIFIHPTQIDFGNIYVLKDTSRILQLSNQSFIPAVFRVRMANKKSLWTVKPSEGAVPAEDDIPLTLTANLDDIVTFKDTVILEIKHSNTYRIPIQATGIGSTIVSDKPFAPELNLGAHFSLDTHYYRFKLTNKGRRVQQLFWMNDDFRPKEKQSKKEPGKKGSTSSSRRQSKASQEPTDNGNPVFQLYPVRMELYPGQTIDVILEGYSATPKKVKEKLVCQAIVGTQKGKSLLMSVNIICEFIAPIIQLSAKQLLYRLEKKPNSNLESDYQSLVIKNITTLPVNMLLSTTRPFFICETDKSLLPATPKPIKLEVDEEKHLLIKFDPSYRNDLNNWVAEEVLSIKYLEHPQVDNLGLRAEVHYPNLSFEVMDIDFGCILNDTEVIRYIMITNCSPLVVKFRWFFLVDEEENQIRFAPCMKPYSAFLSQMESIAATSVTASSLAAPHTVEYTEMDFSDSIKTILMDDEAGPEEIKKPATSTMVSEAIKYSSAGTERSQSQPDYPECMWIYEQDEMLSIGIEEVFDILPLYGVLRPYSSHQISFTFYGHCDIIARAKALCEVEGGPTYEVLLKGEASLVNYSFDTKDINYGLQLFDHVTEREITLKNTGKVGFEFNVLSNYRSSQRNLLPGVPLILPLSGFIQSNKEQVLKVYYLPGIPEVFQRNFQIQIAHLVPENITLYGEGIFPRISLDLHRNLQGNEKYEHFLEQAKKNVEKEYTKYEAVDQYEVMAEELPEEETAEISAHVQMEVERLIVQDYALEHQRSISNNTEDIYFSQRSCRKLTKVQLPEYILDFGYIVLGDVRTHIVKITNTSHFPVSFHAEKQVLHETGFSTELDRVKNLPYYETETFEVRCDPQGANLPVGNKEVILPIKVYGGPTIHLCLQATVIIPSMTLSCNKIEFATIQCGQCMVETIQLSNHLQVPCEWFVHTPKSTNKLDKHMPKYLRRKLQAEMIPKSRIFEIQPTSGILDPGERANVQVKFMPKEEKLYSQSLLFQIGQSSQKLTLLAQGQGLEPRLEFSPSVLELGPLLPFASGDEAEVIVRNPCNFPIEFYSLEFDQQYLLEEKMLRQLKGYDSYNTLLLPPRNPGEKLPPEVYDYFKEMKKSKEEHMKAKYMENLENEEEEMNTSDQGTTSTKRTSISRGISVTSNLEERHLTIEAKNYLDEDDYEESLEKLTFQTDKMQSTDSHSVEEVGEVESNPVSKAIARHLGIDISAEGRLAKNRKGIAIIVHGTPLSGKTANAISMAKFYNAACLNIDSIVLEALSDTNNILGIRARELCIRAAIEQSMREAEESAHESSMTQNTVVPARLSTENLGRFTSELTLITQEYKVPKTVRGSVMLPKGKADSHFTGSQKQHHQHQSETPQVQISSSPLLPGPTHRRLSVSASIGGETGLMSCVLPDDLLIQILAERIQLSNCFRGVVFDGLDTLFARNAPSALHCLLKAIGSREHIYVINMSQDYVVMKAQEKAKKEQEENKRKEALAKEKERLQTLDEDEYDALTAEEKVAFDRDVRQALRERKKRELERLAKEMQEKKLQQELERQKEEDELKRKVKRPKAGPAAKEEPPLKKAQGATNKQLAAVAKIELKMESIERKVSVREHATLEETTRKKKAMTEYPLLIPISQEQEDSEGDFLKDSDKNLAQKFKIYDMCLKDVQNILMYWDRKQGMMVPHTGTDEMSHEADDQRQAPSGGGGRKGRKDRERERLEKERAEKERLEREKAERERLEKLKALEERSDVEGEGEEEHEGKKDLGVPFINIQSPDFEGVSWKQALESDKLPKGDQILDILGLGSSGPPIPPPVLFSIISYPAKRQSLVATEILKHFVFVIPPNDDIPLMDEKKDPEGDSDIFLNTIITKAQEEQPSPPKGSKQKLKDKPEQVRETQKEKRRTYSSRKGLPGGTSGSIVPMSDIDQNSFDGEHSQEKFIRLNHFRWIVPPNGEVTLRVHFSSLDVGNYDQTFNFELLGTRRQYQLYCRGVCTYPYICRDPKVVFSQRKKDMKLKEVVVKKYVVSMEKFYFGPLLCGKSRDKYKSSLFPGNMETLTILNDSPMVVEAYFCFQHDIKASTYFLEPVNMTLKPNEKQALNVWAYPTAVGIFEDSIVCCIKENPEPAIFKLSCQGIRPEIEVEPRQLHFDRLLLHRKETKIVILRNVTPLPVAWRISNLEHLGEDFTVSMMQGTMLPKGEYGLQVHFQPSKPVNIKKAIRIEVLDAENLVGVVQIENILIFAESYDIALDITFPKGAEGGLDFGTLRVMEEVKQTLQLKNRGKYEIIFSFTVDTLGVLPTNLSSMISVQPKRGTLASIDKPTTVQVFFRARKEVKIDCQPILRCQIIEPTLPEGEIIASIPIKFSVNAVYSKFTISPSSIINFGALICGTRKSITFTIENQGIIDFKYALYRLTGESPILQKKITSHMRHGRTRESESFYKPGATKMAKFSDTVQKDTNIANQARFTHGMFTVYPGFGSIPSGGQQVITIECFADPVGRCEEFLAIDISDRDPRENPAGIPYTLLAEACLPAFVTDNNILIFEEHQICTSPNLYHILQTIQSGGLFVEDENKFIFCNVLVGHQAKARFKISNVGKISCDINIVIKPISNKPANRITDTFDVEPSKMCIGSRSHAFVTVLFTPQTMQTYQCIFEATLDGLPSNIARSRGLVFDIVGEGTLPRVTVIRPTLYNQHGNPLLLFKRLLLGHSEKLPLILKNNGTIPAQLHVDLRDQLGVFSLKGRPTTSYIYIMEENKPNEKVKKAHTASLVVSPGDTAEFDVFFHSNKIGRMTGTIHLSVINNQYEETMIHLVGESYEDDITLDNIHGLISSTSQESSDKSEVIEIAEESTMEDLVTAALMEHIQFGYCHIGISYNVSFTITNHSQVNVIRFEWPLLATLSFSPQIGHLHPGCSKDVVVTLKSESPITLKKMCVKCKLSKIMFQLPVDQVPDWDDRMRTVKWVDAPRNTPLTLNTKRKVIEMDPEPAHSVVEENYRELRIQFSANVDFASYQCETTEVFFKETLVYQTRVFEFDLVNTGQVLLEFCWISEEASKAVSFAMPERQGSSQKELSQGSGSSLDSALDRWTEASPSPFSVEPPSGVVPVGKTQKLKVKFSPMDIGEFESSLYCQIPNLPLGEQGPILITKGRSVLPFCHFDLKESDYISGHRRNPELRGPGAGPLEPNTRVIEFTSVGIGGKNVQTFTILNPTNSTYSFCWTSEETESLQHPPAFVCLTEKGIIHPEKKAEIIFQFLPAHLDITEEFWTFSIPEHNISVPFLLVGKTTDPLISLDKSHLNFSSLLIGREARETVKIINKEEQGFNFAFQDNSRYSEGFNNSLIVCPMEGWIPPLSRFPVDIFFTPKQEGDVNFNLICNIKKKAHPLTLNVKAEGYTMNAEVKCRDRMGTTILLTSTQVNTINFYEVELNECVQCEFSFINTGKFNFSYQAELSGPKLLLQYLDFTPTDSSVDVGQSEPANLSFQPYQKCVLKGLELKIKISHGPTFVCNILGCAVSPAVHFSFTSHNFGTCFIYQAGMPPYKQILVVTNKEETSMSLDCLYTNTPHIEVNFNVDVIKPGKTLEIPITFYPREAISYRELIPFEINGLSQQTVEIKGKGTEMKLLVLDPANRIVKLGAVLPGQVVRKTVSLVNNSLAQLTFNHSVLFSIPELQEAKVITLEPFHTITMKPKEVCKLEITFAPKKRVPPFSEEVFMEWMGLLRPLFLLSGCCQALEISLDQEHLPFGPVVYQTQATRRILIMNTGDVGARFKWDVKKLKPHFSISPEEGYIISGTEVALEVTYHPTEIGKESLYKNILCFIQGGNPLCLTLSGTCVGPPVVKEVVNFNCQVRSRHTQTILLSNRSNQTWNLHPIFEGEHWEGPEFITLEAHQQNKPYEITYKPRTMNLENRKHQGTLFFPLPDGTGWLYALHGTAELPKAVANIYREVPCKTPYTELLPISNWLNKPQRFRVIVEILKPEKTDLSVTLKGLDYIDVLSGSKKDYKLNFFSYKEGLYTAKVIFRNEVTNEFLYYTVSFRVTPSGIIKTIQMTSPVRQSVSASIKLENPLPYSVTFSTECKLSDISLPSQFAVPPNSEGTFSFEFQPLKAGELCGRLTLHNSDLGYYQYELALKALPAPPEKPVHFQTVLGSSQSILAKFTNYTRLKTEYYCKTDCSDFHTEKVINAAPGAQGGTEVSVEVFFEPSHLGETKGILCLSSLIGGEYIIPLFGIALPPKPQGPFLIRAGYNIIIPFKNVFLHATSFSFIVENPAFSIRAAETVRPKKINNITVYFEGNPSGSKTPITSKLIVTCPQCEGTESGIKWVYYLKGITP

Tests used:
Assay in all cases: cryo-EM structure; in situ cryo-electron tomography with subtomogram averaging of about 200 nm cryo-FIB lamellae of wild-type mouse sperm; local maps of 5.5 Å to 18 Å; AlphaFold2 models fitted into the density
[1] = target: T1, CFAP20 (mouse (endogenous in sperm)) (UniProt Q8BTU1)
T1 sequence: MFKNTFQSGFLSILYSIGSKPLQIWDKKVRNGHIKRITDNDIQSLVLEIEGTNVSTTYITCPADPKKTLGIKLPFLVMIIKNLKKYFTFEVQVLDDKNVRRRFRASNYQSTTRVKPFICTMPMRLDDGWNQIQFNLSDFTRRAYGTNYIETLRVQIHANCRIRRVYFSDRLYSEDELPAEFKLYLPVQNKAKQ

[2] = target: T2, FAM228B (mouse (endogenous in sperm)) (UniProt Q497Q6)
T2 sequence: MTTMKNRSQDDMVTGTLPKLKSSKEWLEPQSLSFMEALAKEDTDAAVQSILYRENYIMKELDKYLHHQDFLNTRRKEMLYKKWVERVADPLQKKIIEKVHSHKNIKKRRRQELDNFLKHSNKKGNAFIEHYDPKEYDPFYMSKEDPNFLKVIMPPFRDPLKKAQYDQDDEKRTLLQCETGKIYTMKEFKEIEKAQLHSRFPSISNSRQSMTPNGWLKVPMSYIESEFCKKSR

[3] = target: T3, SPAG16 (mouse (endogenous in sperm)) (UniProt Q8K450)
T3 sequence: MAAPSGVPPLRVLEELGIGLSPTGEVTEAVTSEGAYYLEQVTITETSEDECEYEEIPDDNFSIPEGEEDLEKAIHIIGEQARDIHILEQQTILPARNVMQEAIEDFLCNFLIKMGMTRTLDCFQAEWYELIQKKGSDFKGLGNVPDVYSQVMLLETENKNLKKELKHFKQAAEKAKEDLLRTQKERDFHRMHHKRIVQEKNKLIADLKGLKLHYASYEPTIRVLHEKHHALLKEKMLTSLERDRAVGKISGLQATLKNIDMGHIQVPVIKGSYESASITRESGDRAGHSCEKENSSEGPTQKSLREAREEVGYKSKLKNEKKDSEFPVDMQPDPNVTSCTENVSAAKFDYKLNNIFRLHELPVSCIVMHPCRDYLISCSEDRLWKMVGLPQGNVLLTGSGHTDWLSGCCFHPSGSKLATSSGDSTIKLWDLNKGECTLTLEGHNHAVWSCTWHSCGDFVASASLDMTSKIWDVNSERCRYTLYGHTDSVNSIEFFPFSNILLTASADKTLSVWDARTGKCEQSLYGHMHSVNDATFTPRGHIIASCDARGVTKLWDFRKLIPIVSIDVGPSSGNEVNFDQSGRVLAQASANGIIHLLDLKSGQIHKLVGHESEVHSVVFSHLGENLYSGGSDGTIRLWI

[4] = target: CFAP47 (mouse (endogenous in sperm))
[5] = target: HYDIN (mouse (endogenous in sperm)) (UniProt Q80W93)
[6] = target: T4, KIF9 (mouse (endogenous in sperm)) (UniProt Q9WV04)
T4 sequence: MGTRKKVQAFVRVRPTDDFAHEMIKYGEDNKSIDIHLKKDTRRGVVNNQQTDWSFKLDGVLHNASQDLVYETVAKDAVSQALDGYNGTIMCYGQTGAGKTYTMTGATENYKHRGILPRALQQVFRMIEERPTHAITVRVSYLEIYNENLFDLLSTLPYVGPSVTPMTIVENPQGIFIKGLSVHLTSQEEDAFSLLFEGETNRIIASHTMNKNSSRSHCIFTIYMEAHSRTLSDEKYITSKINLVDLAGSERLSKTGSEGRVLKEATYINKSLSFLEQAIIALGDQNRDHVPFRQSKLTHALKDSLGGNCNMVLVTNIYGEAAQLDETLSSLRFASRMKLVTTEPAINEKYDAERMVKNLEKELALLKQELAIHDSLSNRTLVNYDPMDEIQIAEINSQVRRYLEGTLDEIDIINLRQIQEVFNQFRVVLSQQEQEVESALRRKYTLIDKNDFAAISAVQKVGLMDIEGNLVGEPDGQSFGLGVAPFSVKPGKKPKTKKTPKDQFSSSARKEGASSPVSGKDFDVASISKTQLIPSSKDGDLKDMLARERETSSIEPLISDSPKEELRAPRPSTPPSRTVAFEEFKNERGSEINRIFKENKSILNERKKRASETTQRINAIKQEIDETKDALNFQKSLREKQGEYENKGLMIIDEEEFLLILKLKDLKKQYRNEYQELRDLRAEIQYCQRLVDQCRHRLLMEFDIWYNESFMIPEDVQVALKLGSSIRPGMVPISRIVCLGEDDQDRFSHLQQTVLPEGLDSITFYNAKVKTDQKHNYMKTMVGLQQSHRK

[7] = target: HYDIN (mouse (endogenous in sperm)) (UniProt Q80W93); remark: listed apart in the source

- binding [1]: binds
- binding [2]: binds
- binding [3]: binds
Molecule: CFAP65 (from UniProt Q3V0B4 1-1847)

- binding [4]: binds
- binding [5]: binds
- binding [6]: binds
Molecule: HYDIN (from UniProt Q80W93 1-5154)

- binding [7]: binds
B1: MAP1S (protein, UniProt Q8C052 1-973)
chain: MAAVMAAPEAVEAPSSLLLLVVGGECGCPGLLAYVMEELERGVRSWEDVDPAVCSLDEQLKAFVSRHSATFSSIVKGQRSLHHRGETLETLVLLNPSDKSLCDELRNLLMDPAPHKLLVLAGPCLEETGELLLQTGGFSAHHFLQVLGDKEVQDALASAPAAPALTVSCPTFGDWALLGPVPGLQLRLNPPAQLPASEGLRAFLEYVAESLEPPSPFELLEPPAAGGFLRLARPCCYVFPGGLGDAAFFAVNGFTVLVNGGSNPKSSFWKLVRHLDRVDAVLVTHAGADSLPGLNSLLRRKLAEREAAAGPQGQHEERLRRLLSPALGVVFLNAREAASRLRGGEDEAVCARSLLRSLGIAPLPLQRGPQPSCPTVLFEKLGVGRLELFVLHPPPGDPAAPACALLVWQPAAPGDKVVRVLFPGRTPPARLLDGLQRLQHLPCLRRPVVTTHDLEAPSRANSQDSLASRDSARKEPVRGTVGSIANRSTVRREPALATRDQKKDTRSGPTQPTARDTRRSGPGVVNTKPRVSQNGPRAPVLAAPLTAPVAECPGEAENILESERPPAPSPTLSPAQSPPPTAPGNSPERLSLSPLRPEPAPDASPSATTPTLTTPSLPAELGSPHSTEVDESLSVSFEQVLPAGDPGLSLPLRLARRSTSPHDVDLCLVSPCEFSHRKPPPPASPGSSDSSARSQERPPETPPTSVSESLPTLSDSDPVPVADSDDDAGSESAARDPPPTPRVPPPLPDVPGICMVDPEALPPRARQPLNTTNPSRSRKAPARPSSASATPRAATVAAKTKGPAGDRNRPLSARSEPADRPGRVPLTRKPSVPKTVPKMASATRLSSGPSGRPAPLAAGSPVYLDLAYLPGGGAGHLDQNFFLRVRALCYVISGQGQRQEEGLRAVLDALLAGKRQWDLDLQVTLIPTFDSAVMHRWYEETHAQHQALGIRVLGSGSLVSMQDEAFPACKVEF
